Here are results for one sequence from patent US20040115665.

The exact form of at least one protein or probe is not confirmed. Where cells or extracts were used, other partners may take part. Negatives hold for the conditions tested.

This data set deals with ligand protein in 125I-labeled human serum (counterpart of the SEQ ID NO:4 encoded protein) (Homo sapiens). The data set can be described thus: binding assay. As to conditions: isoG at 23 and 31, isoC at 40; fixed on glass slide; negative control spot on aptamer chip; protein in an extract; protein details: 125I-IODOGEN labeled human serum, SIGMA S7023; single-stranded DNA.

For the sequence “TGTAAAACGACGGCCAGTTTCCGGAGTCACGGCTGCGGGCCGTCTGAGCCGTTTGCACGTGTGAAATTGTTATCCGCT [negative control aptamer]”, the binding result is recorded as “no binding”.
